According to article PMC9531299:
No constants are given. Whether binding was seen depends on the method and setting. In cells and extracts the contact can be indirect. A yes stands for co-enrichment or nearness to the bait. Other partners may have been found. Sequences can lack the tags named with a protein.

Molecular target: T1, ADIPOR2‐HA (human (cDNA from HEK‐293T cells)) (UniProt Q86V24)
T1 sequence: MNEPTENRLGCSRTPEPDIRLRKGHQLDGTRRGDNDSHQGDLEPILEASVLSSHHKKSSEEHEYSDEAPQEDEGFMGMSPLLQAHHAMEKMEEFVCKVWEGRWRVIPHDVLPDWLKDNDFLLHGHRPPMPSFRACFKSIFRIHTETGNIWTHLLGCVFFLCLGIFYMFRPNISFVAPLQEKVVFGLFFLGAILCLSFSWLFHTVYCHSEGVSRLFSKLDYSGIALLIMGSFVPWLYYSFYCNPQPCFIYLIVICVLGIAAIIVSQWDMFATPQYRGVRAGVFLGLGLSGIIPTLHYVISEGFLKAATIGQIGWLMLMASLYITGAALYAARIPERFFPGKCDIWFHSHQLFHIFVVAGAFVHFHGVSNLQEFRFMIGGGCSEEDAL
Assay: affinity purification with mass spectrometry; ADIPOR2‐HA stably expressed in HEK‐293T cells, HA‐affinity purified, partners identified by tandem mass spectrometry; control: cells with empty vector

B1: endogenous RNF145 (enzyme, UniProt Q96MT1 1-663)
chain: MAAKEKLEAVLNVALRVPSIMLLDVLYRWDVSSFFQQIQRSSLSNNPLFQYKYLALNMHYVGYILSVVLLTLPRQHLVQLYLYFLTALLLYAGHQISRDYVRSELEFAYEGPMYLEPLSMNRFTTALIGQLVVCTLCSCVMKTKQIWLFSAHMLPLLARLCLVPLETIVIINKFAMIFTGLEVLYFLGSNLLVPYNLAKSAYRELVQVVEVYGLLALGMSLWNQLVVPVLFMVFWLVLFALQIYSYFSTRDQPASRERLLFLFLTSIAECCSTPYSLLGLVFTVSFVALGVLTLCKFYLQGYRAFMNDPAMNRGMTEGVTLLILAVQTGLIELQVVHRAFLLSIILFIVVASILQSMLEIADPIVLALGASRDKSLWKHFRAVSLCLFLLVFPAYMAYMICQFFHMDFWLLIIISSSILTSLQVLGTLFIYVLFMVEEFRKEPVENMDDVIYYVNGTYRLLEFLVALCVVAYGVSETIFGEWTVMGSMIIFIHSYYNVWLRAQLGWKSFLLRRDAVNKIKSLPIATKEQLEKHNDICAICYQDMKSAVITPCSHFFHAGCLKKWLYVQETCPLCHCHLKNSSQLPGLGTEPVLQPHAGAEQNVMFQEGTEPPGQEHTPGTRIQEGSRDNNEYIARRPDNQEGAFDPKEYPHSAKDEAHPVESA
binding: binds
